No constants are given. Whether binding was seen depends on the method and setting. For some of these results: Binding seen in cells or lysates may run through a third protein. Some results given as binding are weak or reduced against the parent protein; the word gives no strength. For some of these results: Where a sequence is shown, tags or fusion partners need not be part of it.

Sequences of proteins named here, by UniProt entry; tags and fusion partners are left off.
UniProt P35222: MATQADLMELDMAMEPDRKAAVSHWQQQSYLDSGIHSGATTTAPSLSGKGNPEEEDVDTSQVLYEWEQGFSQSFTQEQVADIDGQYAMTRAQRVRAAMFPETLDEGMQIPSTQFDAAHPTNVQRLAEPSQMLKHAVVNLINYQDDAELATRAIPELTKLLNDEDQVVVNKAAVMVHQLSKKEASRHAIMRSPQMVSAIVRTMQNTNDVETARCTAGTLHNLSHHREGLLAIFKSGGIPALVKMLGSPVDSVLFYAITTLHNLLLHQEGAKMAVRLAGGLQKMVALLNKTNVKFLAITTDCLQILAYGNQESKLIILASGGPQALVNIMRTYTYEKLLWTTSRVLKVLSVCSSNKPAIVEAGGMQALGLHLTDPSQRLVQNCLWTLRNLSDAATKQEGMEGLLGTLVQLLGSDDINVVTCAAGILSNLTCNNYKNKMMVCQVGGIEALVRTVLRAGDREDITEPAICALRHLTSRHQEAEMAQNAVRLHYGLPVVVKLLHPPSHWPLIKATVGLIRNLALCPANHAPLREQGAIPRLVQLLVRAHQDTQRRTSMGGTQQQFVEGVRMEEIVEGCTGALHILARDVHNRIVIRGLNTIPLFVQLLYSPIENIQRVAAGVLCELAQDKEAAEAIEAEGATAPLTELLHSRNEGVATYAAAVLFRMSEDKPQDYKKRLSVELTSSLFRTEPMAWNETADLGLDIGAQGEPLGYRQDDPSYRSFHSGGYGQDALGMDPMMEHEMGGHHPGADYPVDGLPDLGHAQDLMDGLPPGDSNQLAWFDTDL
UniProt P47929: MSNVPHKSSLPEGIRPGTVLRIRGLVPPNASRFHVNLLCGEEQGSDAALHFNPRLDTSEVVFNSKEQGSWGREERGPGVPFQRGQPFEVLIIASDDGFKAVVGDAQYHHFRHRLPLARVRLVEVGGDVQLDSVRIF

The values below come from publication PMC5719072.

Test [1] addresses β-catenin (human (endogenous in HaCaT)) (UniProt P35222). The test is described as follows: proximity ligation; Duolink In situ Red kit on HaCaT cells, endogenous proteins; for galectin-7/E-cadherin also after lactose washes.
Test [2] has the same target. The test is described as follows: co-IP; immunoprecipitation of E-cadherin, α-catenin or β-catenin from HaCaT whole cell extracts, blot for galectin-7 (supplementary Figs S2a-c).
In test [3] the target is galectin-7 (human (endogenous in HaCaT)) (UniProt P47929). The experiment in a line: co-IP; immunoprecipitation of galectin-7 from whole cell extracts of confluent HaCaT cells, blots for E-cadherin, α-catenin and β-catenin; also with 150 mM β-lactose, 300 mM galactose, 300 mM glucose, 15 mM LacNAc or 15 mM sucrose, and after deglycosylation of the lysate in non-denaturing ….

The target in test [4] is T1, extracellular domain of mouse E-cadherin fused to human IgG1 Fc fragment (mouse) (UniProt P09803).
T1 sequence: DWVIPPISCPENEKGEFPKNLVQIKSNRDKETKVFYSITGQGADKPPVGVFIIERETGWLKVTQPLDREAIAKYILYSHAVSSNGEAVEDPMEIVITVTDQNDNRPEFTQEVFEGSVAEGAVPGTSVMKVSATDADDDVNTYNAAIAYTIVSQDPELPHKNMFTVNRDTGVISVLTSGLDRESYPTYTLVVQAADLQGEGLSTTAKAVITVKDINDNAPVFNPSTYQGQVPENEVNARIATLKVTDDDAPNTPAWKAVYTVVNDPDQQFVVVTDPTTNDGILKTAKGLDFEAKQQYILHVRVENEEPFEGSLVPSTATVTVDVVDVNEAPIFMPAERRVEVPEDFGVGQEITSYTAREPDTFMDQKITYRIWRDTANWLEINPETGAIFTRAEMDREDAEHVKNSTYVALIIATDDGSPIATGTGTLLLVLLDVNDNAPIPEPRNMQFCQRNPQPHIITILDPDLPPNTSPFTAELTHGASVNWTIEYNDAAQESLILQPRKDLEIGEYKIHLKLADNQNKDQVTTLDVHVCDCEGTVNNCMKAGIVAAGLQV
The test is described as follows: pull-down; in vitro binding assay: purified proteins mixed in 100 μl lysis buffer overnight at 4 °C, E-cad-Fc captured on protein-A-Sepharose 3 h at 4 °C, washes with PBS - 0.5% NP40 and PBS; both purified.

As for galectin-7 (from UniProt P47929 1-136), the binding entry in test [1] and in test [2] was “binds” each time.
Consider β-catenin (from UniProt P35222 1-781), for which the binding entry in test [3] was “binds”.
“recombinant human galectin-7 (from UniProt P47929 1-136)”: the binding entry in test [4] was “binds”.
